Results deposited as PubChem BioAssay AID720505 (Drosophila RNAi Screening Center, 2013)
The deposit covers about 20,000 reagents; shown is a random part of those that have a named target and a result. Of all reagents, about 2,100 (10%) got an active call. 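Raw plate signals without normalisation; calls rest on control-based scores that were not deposited; replicate 2 separates called from uncalled poorly.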 A number with no mark means an inactive call. Reagents against one gene are numbered here. The record does not give: the amount of reagent, the time to read-out.

- Aim: 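Genes needed for store-operated calcium entry in fly cells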 (primary screen)
- System: Drosophila S2R+ cells
- Reagents: long dsRNA against Drosophila genes
- Treatment: thapsigargin (2 µM) in calcium-free buffer to empty internal stores, then 2 mM calcium added back
- Read-out: 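Stores emptied by 2 µM thapsigargin without calcium, then 2 mM calcium re-added; fluo-4 fluorescence followed by FLIPR in 384-well plates, per-well averaged endpoint, raw; two screen passes, some wells retested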
- Reading the numbers: calcium signal and retest calcium signal: higher = more calcium entry after store depletion
- Call rule: 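Knock-downs counted as hits when calcium entry dropped relative to STIM1 positive and Rho1 negative controls present on each plate; roughly 1500 genes called, with reductions of differing size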
- Meaning of the calls: active = called as lowering calcium entry; inactive = not called

| Target gene | reagent no. | calcium signal, replicate 1 | calcium signal, replicate 2 | retest calcium signal, replicate 1 | retest calcium signal, replicate 2 |
| --- | --- | --- | --- | --- | --- |
| CG1638 | 1 | 61.5 (active) | 85.8 | – | – |
| DENR | 1 | 133 | 93.9 | – | – |
| Cln3 | 1 | 136 | 180 | – | – |
| CG30053 | 1 | 84.8 | 192 | – | – |
| olf413 | 1 | 77.9 | 177 | 7403 | 116 |
| olf413 | 2 | 91 | 104 | – | – |
| olf413 | 3 | 106 | 139 | 93 | 92.2 |
| CG15399 | 1 | 178 | 166 | – | – |
| CG15530 | 1 | 96 | 92.3 | – | – |
| BubR1 | 1 | 135 | 175 | – | – |
| Droj2 | 1 | 119 | 83.2 | – | – |
| dy | 1 | 116 | 81.7 | – | – |
| Osi20 | 1 | 129 | 177 | – | – |
| CG3760 | 1 | 184 | 156 | – | – |
| Rbcn-3B | 1 | 108 | 155 | – | – |
| nsl1 | 1 | 126 | 125 | – | – |
| Taf10b | 1 | 158 | 116 | – | – |
| Der-1 | 1 | 135 | 261 | – | – |
| olf186-M | 1 | 109 | 111 | – | – |
| GstD7 | 1 | 127 | 88.4 | 102 | 72.9 |
| CG7409 | 1 | 84.3 | 74.9 | – | – |
| PH4alphaSG1 | 1 | 136 | 155 | – | – |
| CG14483 | 1 | 116 | 118 | – | – |
| CG32603 | 1 | 91.3 | 123 | – | – |
| CG32603 | 2 | 109 | 89.9 | – | – |
| Pcp | 1 | 219 | 108 | – | – |
| ODA-Dnal1 | 1 | 105 | 166 | – | – |
| CG14715 | 1 | 124 | 131 | – | – |
| CG13901 | 1 | 86.8 | 89.6 | – | – |
| CG12159 | 1 | 119 | 113 | – | – |
| CG11858 | 1 | 210 | 124 | 105 | 89.8 |
| CG6153 | 1 | 91 | 106 | – | – |
| Fitm | 1 | 122 | 90.9 | – | – |
| Sec24CD | 1 | 40.4 (active) | 124 | – | – |
